“And” between values parts separate entries of the source, which are not always exact repeats. Identical values can stand only once. Counter-ions that a name gives are not always drawn. ± gives the standard deviation of the averaged measurements. The list shows a part of the results. Part of the spread comes from offsets between plates or batches.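 Primary human stellate myofibroblasts activated in culture; inactivation shown by regained lipid droplets. Readout: fraction of Hoechst-counted cells exceeding a per-plate Bodipy threshold, duplicate wells, each plate with DMSO negative and nortriptyline positive controls. Hits: control-normalized score beyond the plate's top-tenth-percentile nortriptyline wells, or among its three best wells. Final well concentrations unstated.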
System: primary human hepatic stellate cells (donor 1)
Assay: percent Bodipy-positive cells; higher = more lipid droplet accumulation
Conditions: 48 h
[1] = library stock concentration: 3.33 mM
[2] = library stock concentration: 10 mM
[3] = library stock concentration: 80 uM
[4] = library stock concentration: 400 uM
[5] = library stock concentration: 2 mM
[6] = library stock concentration: 1 mM

Compound: C=CCN1CCCC1CNC(=O)c1cc2nn[nH]c2cc1OC (stereo unspecified) [Alizapride HCl]
- percent Bodipy-positive cells: 40.4 ± 16%
- percent Bodipy-positive cells [1]: 13.6 ± 3.9%
- percent Bodipy-positive cells [2]: 32.8 ± 10%

Compound: Cc1[nH]c(/C=C2\C(=O)Nc3ccc(S(=O)(=O)Cc4c(Cl)cccc4Cl)cc32)c(C)c1C(=O)N1CCC[C@@H]1CN1CCCC1
- percent Bodipy-positive cells [1]: 100%
- percent Bodipy-positive cells [2]: 100%

Compound: COc1ccc(CNCc2cccc3ccccc23)cc1
- percent Bodipy-positive cells [1]: 14.7 ± 1.4%
- percent Bodipy-positive cells [2]: 70.9 ± 10%

Compound: O=C(O)CCC/C=C\C[C@@H]1[C@@H](/C=C/[C@H](O)C2Cc3ccccc3C2)[C@@H](F)C[C@@H]1O
- percent Bodipy-positive cells [2]: 49.3 ± 14%

Compound: NC(=O)[C@@H](CCC(F)(F)F)N(Cc1ccc(-c2ncon2)cc1F)S(=O)(=O)c1ccc(Cl)cc1
- percent Bodipy-positive cells [1]: 9.14 ± 3.1%
- percent Bodipy-positive cells [2]: 25.56 ± 0.16%

Compound: CC1=C(C(=O)O)N2C(=O)[C@@H](NC(=O)[C@H](N)c3ccc(O)cc3)[C@H]2SC1 [Cefadroxil]
- percent Bodipy-positive cells: 26.2 ± 10%
- percent Bodipy-positive cells [2]: 13.3 ± 1%

Compound: N#CC(=C(/N)Sc1ccccc1N)/C(C#N)=C(\N)Sc1ccccc1N
- percent Bodipy-positive cells [1]: 9.2 ± 1.7%
- percent Bodipy-positive cells [2]: 18.1 ± 0.38%

Compound: c1ccc2c(-c3cnn4cc(-c5ccc(N6CCNCC6)cc5)cnc34)ccnc2c1
- percent Bodipy-positive cells [3]: 22.1 ± 0.37%
- percent Bodipy-positive cells [4]: 67.4 ± 45%
- percent Bodipy-positive cells [5]: 94.1 ± 2.5%
- percent Bodipy-positive cells [2]: 73.7 ± 6.7%

Compound: CC(C)(Oc1ccc(C2CC2(Cl)Cl)cc1)C(=O)O (stereo unspecified) [Ciprofibrate]
- percent Bodipy-positive cells: 9.1 ± 2.5%
- percent Bodipy-positive cells [1]: 9.3 ± 6.9%

Compound: CN(CCOc1ccc(-c2ccc3c(c2)OCO3)cc1C(C)(C)C)CC(=O)O
- percent Bodipy-positive cells [2]: 7.47 ± 0.28%

Compound: CCCCC[C@H](O)/C=C/[C@@H]1[C@@H](CCCCCCC(=O)O)[C@@H](O)C[C@H]1O [Prostaglandin F1.alpha.]
- percent Bodipy-positive cells [6]: 17.7 ± 3.2%

Compound: N[C@@H](CSS(=O)(=O)O)C(=O)O [S-Sulfo-L-cysteine sodium salt]
- percent Bodipy-positive cells [2]: 7.37 ± 2.1%

Compound: CNCCCC1c2ccccc2C=Cc2ccccc21.Cl [Protriptyline hydrochloride]
- percent Bodipy-positive cells: 82.8 ± 8.8%
- percent Bodipy-positive cells [2]: 87.82 ± 0.5%

Compound: C#CCCC[C@@H](O)CCCCCCCCCCC(=O)O [12(S)-hydroxy-16-Heptadecynoic Acid]
- percent Bodipy-positive cells [6]: 13.8 ± 2.2%

Compound: CCCCCC(O)C=CC1C(O)CC(O)C1CCCCCCC(=O)O (stereo unspecified) [Prostaglandin  F1a]
- percent Bodipy-positive cells [6]: 10.1 ± 6.6%

Compound: C#C[C@]1(O)CCC2C3CCC4=CC(=O)CC[C@@H]4C3CC[C@@]21CC (stereo partly specified) [Norgestrel]
- percent Bodipy-positive cells (library stock concentration: 6.4 mM): 70.8 ± 2.6%

Compound: CCN(CC)CCCCNc1ncc2c(n1)N(C)C(=O)N(c1c(Cl)c(OC)cc(OC)c1Cl)C2
- percent Bodipy-positive cells [3]: 15.1 ± 9.8%
- percent Bodipy-positive cells [4]: 11.2 ± 4.1%
- percent Bodipy-positive cells [5]: 18.6 ± 3.5%
- percent Bodipy-positive cells [2]: 52.8 ± 10%

Compound: O=c1cc(O)cc(/C=C/c2ccc(O)c(O)c2)o1 [Hispidin]
- percent Bodipy-positive cells [2]: 40.5 ± 3.1%

Compound: Clc1ccc(-c2nc3sccn3c2/C=N/OCc2ccc(Cl)c(Cl)c2)cc1
- percent Bodipy-positive cells [2]: 10.4 ± 1%

Compound: O=S(=O)(c1cccc2c(I)cccc12)N1CCCNCC1
- percent Bodipy-positive cells [2]: 93.5 ± 3.8%

Compound: O=C(c1cccs1)c1ccc(OCCCO)c(Cl)c1Cl [homo-Tienilic Alcohol]
- percent Bodipy-positive cells [6]: 6.13 ± 1.6%

Compound: CCN1CCC[C@H]1CNC(=O)c1cc(S(N)(=O)=O)ccc1OC [Sulpiride s (-)]
- percent Bodipy-positive cells (library stock concentration: 5.9 mM): 7.17 ± 1.5%

Compound: CCN1CCC[C@H]1CNC(=O)c1cc(S(N)(=O)=O)ccc1OC [(S)-(-)-Sulpiride]
- percent Bodipy-positive cells [2]: 5.96 ± 1%

Compound: CCN1CCC[C@H]1CNC(=O)c1cc(S(N)(=O)=O)ccc1OC [Levosulpiride]
- percent Bodipy-positive cells [1]: 7.02 ± 1.4%
- percent Bodipy-positive cells [2]: 27.6 ± 20%

Compound: CCN1CCC[C@H]1CNC(=O)c1cc(S(N)(=O)=O)ccc1OC
- percent Bodipy-positive cells [2]: 8.93 ± 1%

Compound: Nc1ccc(S(N)(=O)=O)cc1 [Sulfanilamide]
- percent Bodipy-positive cells: 7.69 ± 1.2%
- percent Bodipy-positive cells [1]: 14.2 ± 2.6%
- percent Bodipy-positive cells [2]: 12.3% and 29.3%
- percent Bodipy-positive cells (library stock concentration: 11.6 mM): 11.1 ± 0.48%

Compound: COc1cc2ncnc(Nc3ccc(Oc4ccccc4)cc3)c2cc1OC [Src Kinase Inhibitor I]
- percent Bodipy-positive cells [1]: 20.4 ± 4%

Compound: COc1cc2ncnc(Nc3ccc(Oc4ccccc4)cc3)c2cc1OC
- percent Bodipy-positive cells [2]: 12.7 ± 4%

Compound: CCCCCCCCCCCC(=O)O [Lauric Acid]
- percent Bodipy-positive cells [6]: 11.1 ± 1.2%

Compound: CC1CCN(CCCC(=O)c2ccc(F)cc2)CC1 [Metylperon]
- percent Bodipy-positive cells [2]: 20.7 ± 2%

Compound: CC1CCN(CCCC(=O)c2ccc(F)cc2)CC1 [Melperone hydrochloride]
- percent Bodipy-positive cells [2]: 17.1 ± 5.9%

Compound: CC1CCN(CCCC(=O)c2ccc(F)cc2)CC1
- percent Bodipy-positive cells [2]: 23.1 ± 5%

Compound: COc1cc2c(Oc3ccc(NC(=O)C4(C(=O)Nc5ccc(F)cc5)CC4)cc3F)ccnc2cc1OCCCN1CCOCC1
- percent Bodipy-positive cells [1]: 92.3 ± 6%

Compound: CCOc1nc2cccc(C(=O)OC(C)OC(=O)OC3CCCCC3)c2n1Cc1ccc(-c2ccccc2-c2nn[nH]n2)cc1 (stereo unspecified) [Candesartan Cilexetil]
- percent Bodipy-positive cells [1]: 9.42 ± 1.9%
- percent Bodipy-positive cells [2]: 28.5 ± 18%

Compound: CCOc1nc2cccc(C(=O)OC(C)OC(=O)OC3CCCCC3)c2n1Cc1ccc(-c2ccccc2-c2nn[nH]n2)cc1 (stereo unspecified) [Candesartan cilextil]
- percent Bodipy-positive cells [2]: 37 ± 4.2%

Compound: N[C@@H](CCC(=O)N[C@@H](CSN=O)C(=O)NCC(=O)O)C(=O)O [S-Nitrosoglutathione]
- percent Bodipy-positive cells [2]: 36.89 ± 0.13%

Source: the supplement of paper PMC9135407
